This passage reports cell viability results from the supplement of paper PMC9744312.

Counter-ions that a name gives are not always drawn. Some of the results follow. This is a noisy data set.

In the test the test system is Peyronie's disease tunica albuginea primary fibroblasts. Briefly: cell viability (DRAQ5 nuclear stain) relative to TGF-beta1-only control; higher = more viable cells. Particulars: 10 µM; TGF-beta1 10 ng/mL; 72 h.
As a reminder, the cell viability is a read-out of living cells in per cent, often relative to untreated cells. As for `CCC(=O)NC[C@@H]1C[C@H]1c1cccc2c1CCO2` [Tasimelteon], the cell viability is 49.5%.

For `Clc1ccc(COC(Cn2ccnc2)c2ccc(Cl)cc2Cl)cc1` (centres undefined) [Econazole], the cell viability stood at 81.9%. With `Clc1ccc(COC(Cn2ccnc2)c2ccc(Cl)cc2Cl)cc1` (centres undefined) [Econazole nitrate], the cell viability was 82.2%. The result for `CCCC(C(=O)OCCN(CC)CC)(c1ccccc1)c1ccccc1` [Proadifen HCl] reads 87.6%. For `CO[C@H]1C(=O)[C@]2(C)[C@@H](OC)C[C@H]3OC[C@@]3(OC(C)=O)[C@H]2[C@H](OC(=O)c2ccccc2)[C@]2(O)C[C@H](OC(=O)[C@H](O)[C@@H](NC(=O)OC(C)(C)C)c3ccccc3)C(C)=C1C2(C)C` [Cabazitaxel], the cell viability amounted to 70.1%. The figure for `O=S(=O)(O)CCSSCCS(=O)(=O)O` [Dimesna] is 70%; for `CN1CCC[C@H]1c1cccnc1` [Nicotine Ditartrate] it is 85.9%. The result for `O=P(O)(O)C(O)(Cc1cccnc1)P(=O)(O)O` [Risedronate Sodium] reads 109%; that for `CCN(CC)C(=O)N1CCN(C)CC1` [Diethylcarbamazine citrate], 89%; that for `O=C(O)c1cc(O)c(O)c(O)c1` [Gallic acid], 98.8%. The figure for `Nc1cc(N2CCCCC2)nc(N)[n+]1OS(=O)(=O)[O-]` [Minoxidil sulphate] is 81.9%. For the molecule `CC(C)(C)C(O)/C=C/c1ccc2c(c1)OCO2` (centres undefined) [Stiripentol], the cell viability stood at 88.1%. As to `CCc1cc(/C(C)=N/OCc2ccc(C3CCCCC3)c(C(F)(F)F)c2)ccc1CN1CC(C(=O)O)C1` [BAF312 (Siponimod)], the cell viability was 85.7%.

`CC[C@]1(O)C[C@@H]2CN(CCc3c([nH]c4ccccc34)[C@@](C(=O)OC)(c3cc4c(cc3OC)N(C)[C@H]3[C@@](O)(C(=O)OC)[C@H](OC(C)=O)[C@]5(CC)C=CCN6CC[C@]43[C@@H]65)C2)C1` [Vinblastine sulfate]: the cell viability came to 52%. Turning to `COc1cc2c(cc1OC)CN(CCc1ccc(NC(=O)c3cccc4c(=O)c5cccc(OC)c5[nH]c34)cc1)CC2`, the cell viability is 103%. The result for `CC(CCc1ccc(O)cc1)NCC(O)c1ccc(O)cc1` (centres undefined) [Ractopamine HCl] reads 94%. The figure for `CCN(CCCc1ccccc1)CCCc1ccccc1` [Alverine Citrate] is 87.8%; for `Cc1c(C)c2c(c(C)c1O)CC[C@@](C)(CCC[C@H](C)CCC[C@H](C)CCCC(C)C)O2` [Vitamin E] it is 66.6%.

For `CCC(=O)NCC[C@@H]1CCc2ccc3c(c21)CCO3` [Ramelteon], the cell viability was determined as 90.4%. Take `COC1=CC(=O)C[C@@H](C)[C@]12Oc1c(Cl)c(OC)cc(OC)c1C2=O` [Griseofulvin]: the cell viability turned out to be 83.4%.

Regarding `O[C@@H](COc1cccc2ncccc12)CN1CCN(C2c3ccccc3[C@@H]3[C@H](c4ccccc42)C3(F)F)CC1` (some centres undefined), the cell viability came out at 85.4%. Regarding `NS(=O)(=O)NCCNc1nonc1/C(=N/O)Nc1ccc(F)c(Br)c1`, the cell viability came out at 84.1%. The result for `OCC(O)CN1CCN(c2ccccc2)CC1` (centres undefined) [Dropropizine] reads 102%; that for `COc1cc(N)c(Cl)cc1C(=O)NC1CCN(CCCOc2ccc(F)cc2)CC1OC` (centres undefined) [Cisapride hydrate], 85.8%. The figure for `COc1cc(N)c(Cl)cc1C(=O)NC1CCN(CCCOc2ccc(F)cc2)CC1OC` (centres undefined) [Cisapride] is 94.8%.

Take `CN(C)CCC(c1ccc(Cl)cc1)c1ccccn1` (centres undefined) [Chlorpheniramine Maleate]: the cell viability stood at 87.7%. The figure for `CCCC(CCC)C(=O)O` [Valproic acid sodium salt (Sodium valproate)] is 61.3%; for `CCCC(CCC)C(=O)O` [Valproic acid] it is 80.6%; for `CCCC(CCC)C(=O)O` [Divalproex Sodium] it is 86.7%. The result for `CN(C)[C@@H](CCOc1cccc2ccccc12)c1ccccc1` [Dapoxetine HCl] reads 91.3%; that for `Cc1onc(-c2ccccc2)c1C(=O)N[C@@H]1C(=O)N2[C@@H]1SC(C)(C)[C@@H]2C(=O)O` [Oxacillin sodium monohydrate], 91.6%; that for `Cc1nccn1CCC(C(N)=O)(c1ccccc1)c1ccccc1` [Imidafenacin], 88.5%.

In the case of `Cc1c(OCC(F)(F)F)ccnc1C[S+]([O-])c1nc2ccccc2[nH]1` (centres undefined) [Lansoprazole], the cell viability turned out to be 83.2%. The result for `O=C([O-])C(O)[C@H](O)[C@@H](O)[C@H](O)[C@H](O)CO.O=C([O-])C(O)[C@H](O)[C@@H](O)[C@H](O)[C@H](O)CO.[Ca+2]` (some centres undefined) [Calcium Gluceptate] reads 93.4%; that for `COc1ccc2cc1Oc1ccc(cc1)C[C@H]1c3c(cc4c(c3Oc3cc5c(cc3OC)CCN(C)[C@@H]5C2)OCO4)CCN1C` [Cepharanthine], 103%; that for `O=C(O[C@@H]1C[C@@H]2C[C@H]3C[C@H](C1)N2CC3=O)c1c[nH]c2ccccc12` [Dolasetron], 82.6%. The result for `COC(=O)Nc1nc2cc(C(=O)c3ccc(F)cc3)ccc2[nH]1` [Flubendazole] reads 87.7%; that for `CCOC(=O)c1ccc(O)cc1` [Ethylparaben], 93.6%. The figure for `CC(=O)O[C@H]1Cc2ccccc2N(C(N)=O)c2ccccc21` [Eslicarbazepine Acetate] is 90.8%. On to `CC1CCc2cc(F)cc3c(=O)c(C(=O)O)cn1c23` (centres undefined) [Flumequine], for which the cell viability turned out to be 98%. Turning to `CCCCOc1ccc(OCCCN2CCOCC2)cc1` [Pramoxine HCl], the cell viability was 89.3%. The figure for `C[C@@H](O)[C@H]1C(=O)N2C(C(=O)OCOC(=O)C(C)(C)C)=C(SC3CN(C4=NCCS4)C3)[C@H](C)[C@H]12` [Tebipenem Pivoxil] is 81.3%; for `C1CNCCNCCNCCN1` [Cyclen] it is 91.7%; for `COc1ccc(-n2nc(C(N)=O)c3c2C(=O)N(c2ccc(N4CCCCC4=O)cc2)CC3)cc1` [Apixaban] it is 99%. The figure for `CC(C)[C@H]1CC[C@H](C(=O)N[C@H](Cc2ccccc2)C(=O)O)CC1` [Nateglinide] is 85.2%; for `CC(C)c1nc(CN(C)C(=O)N[C@H](C(=O)N[C@@H](Cc2ccccc2)C[C@H](O)[C@H](Cc2ccccc2)NC(=O)OCc2cncs2)C(C)C)cs1` [Ritonavir] it is 77.5%. The result for `COc1ccccc1OCCNCC(O)COc1cccc2[nH]c3ccccc3c12` (centres undefined) [Carvedilol Phosphate] reads 70.3%. On to `COc1ccccc1OCCNCC(O)COc1cccc2[nH]c3ccccc3c12` (centres undefined) [Carvedilol], for which the cell viability is 81.1%.

In the case of `CN1CCN(c2ccc(C(=O)Nc3n[nH]c4ccc(Cc5cc(F)cc(F)c5)cc34)c(NC3CCOCC3)c2)CC1` [Entrectinib (RXDX-101)], the cell viability amounted to 51.6%.
